Laboratory results published in PubChem BioAssay AID1259354 (Paczesny and Yang Labs, IUPUI and University of Michigan, 2018).
In all, about 78,000 compounds went through this assay and about 1,800 (2.3%) were called active. This list was built around the results that the source calls inconclusive (neither active nor inactive); the mix of calls is not that of the screen. Cut-off read from the data, not from the text of the source: active = inhibition above about 30%; inconclusive = mostly about 10% to 28%; inactive = weaker than that.

Sequences of proteins named here, by UniProt entry; tags and fusion partners are left off. A change or cut given only in a name is not applied to a line headed by its entry.
UniProt Q01638: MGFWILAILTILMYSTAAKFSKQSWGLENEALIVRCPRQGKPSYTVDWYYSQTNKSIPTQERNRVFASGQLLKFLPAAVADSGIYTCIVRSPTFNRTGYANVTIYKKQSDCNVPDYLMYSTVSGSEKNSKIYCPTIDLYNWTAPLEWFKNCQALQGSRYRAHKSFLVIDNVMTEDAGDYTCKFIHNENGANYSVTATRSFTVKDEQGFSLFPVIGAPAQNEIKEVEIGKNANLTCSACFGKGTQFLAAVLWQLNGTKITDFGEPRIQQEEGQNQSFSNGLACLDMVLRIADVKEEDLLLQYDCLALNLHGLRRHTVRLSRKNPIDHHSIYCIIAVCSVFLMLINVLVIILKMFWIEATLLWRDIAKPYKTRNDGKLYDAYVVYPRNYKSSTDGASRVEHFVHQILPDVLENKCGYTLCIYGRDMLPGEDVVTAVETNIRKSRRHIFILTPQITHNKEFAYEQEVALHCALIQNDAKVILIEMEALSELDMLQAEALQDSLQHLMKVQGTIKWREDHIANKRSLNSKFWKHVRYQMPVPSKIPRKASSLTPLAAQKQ

molecular target: Interleukin-1 receptor-like 1 (Homo sapiens) (UniProt Q01638); experiment: blocks human ST2 binding to IL-33, primary screen, biochemical, AlphaLISA (AID 1259354); settings: AlphaLISA ST2-Fc/biotin-IL-33 interaction, 1 h; at 17 µM, stronger effect = higher value

SMILES | inhibition
COc1cc(C2Nc3ccccc3NC3=C2C(=O)CCC3)cc(OC)c1O (stereo unspecified) | inconclusive: 12%
Fc1cccc(Cl)c1C1CC(c2ccccc2)Nc2ncnn21 (stereo unspecified) | inactive
CC(C)CC(=O)Nc1ccnn1C1CCN(Cc2ccc(Cl)s2)CC1 | inactive
COc1ccc(-c2nc3cc(N=Cc4cc5c(cc4[N+](=O)[O-])OCO5)ccc3o2)cc1 | inconclusive: 21%
Cc1ccccc1CSc1nc2c([nH]c3ccccc32)c(=O)n1C | inconclusive: 13%
O[C@@H]1CN(Cc2ccc(-c3ccn[nH]3)s2)CC[C@H]1c1ccc(F)cc1 | inconclusive: 10%
Cc1ccc(-n2nc3c(c2NC(=O)C2CC2)CSC3)c(C)c1 | inactive
Cc1cc2n(n1)C(c1ccccc1)CC(c1ccccc1)=N2 (stereo unspecified) | inconclusive: 14%
N#CCCN1c2ccccc2Sc2ccc(Cl)cc21 | inconclusive: 11%
COc1cc2c(cc1OC)CN(C1CCCN(C(=O)CSc3ccccc3)C1)CC2 (stereo unspecified) | inactive
Cc1nc(C(C)C)sc1C(=O)N(C)Cc1nc(-c2ccccn2)no1 | inactive
O=C(c1ccc2cc[nH]c2c1)N1CCCC(CCc2ccccc2C(F)(F)F)C1 (stereo unspecified) | inconclusive: 16%
Cc1ccccc1NC(=O)Cn1c(=O)n(CCC(=O)NCc2ccccc2)c(=O)c2sccc21 | inconclusive: 11%
Cc1ccc(CC(CC(=O)O)C(=O)Nc2cccc([N+](=O)[O-])c2)cc1 (stereo unspecified) | inconclusive: 17%
Cc1ccc(Nc2cc(C)nc(N3CCN(S(=O)(=O)c4cccc(F)c4)CC3)n2)cc1 | inconclusive: 12%
Cc1ccc(-c2noc(CCC(=O)NC3CCCCCC3)n2)cc1 | inactive
Cc1cc(=O)[nH]c(CCNC(=O)[C@@H](O)c2ccccc2)n1 | inconclusive: 14%
Cc1c(C=O)c2ccccc2n1CC(=O)NCc1ccco1 | inconclusive: 13%
CC1CCN(C(=O)C2CCC(Cn3c(=O)c4sccc4n(CC(=O)NC(C)C)c3=O)CC2)CC1 (stereo unspecified) | inconclusive: 19%
COc1ccc(Cl)cc1C(=O)Nc1cccc2nsnc12 | inconclusive: 22%
CN(C)c1ccc(C2C=C(Nc3ccccc3)C(=O)N2c2ccccc2)cc1 (stereo unspecified) | inconclusive: 14%
Cc1cccc(C2=N/C(=C\c3coc4ccccc4c3=O)C(=O)O2)c1 | inconclusive: 14%
Cc1nc2sccn2c1C(=O)N1CCC(n2nccc2NC(=O)C(C)(C)C)CC1 | inconclusive: 21%

SMILES | inhibition
CC1=C(c2ccccc2)C1c1nc(CC2CCN(C)CC2)no1 (stereo unspecified) | inconclusive: 11%
COc1cc(CN2CC[C@H](c3nnc(C)o3)C2)cc(OC)c1OC | inconclusive: 10%
COc1ccc2nc(Cl)c(Cl)nc2c1 | inactive
N=C1S/C(=C\c2ccc(-c3ccc(Cl)c(C(=O)O)c3)o2)C(=O)N1c1nccs1 | inactive
CCOC(=O)C1(Cc2ccccc2C(F)(F)F)CCN(Cc2cccnc2)CC1 | inactive
CCOCc1cnc(C)nc1NCC(=O)c1c(C)[nH]c2cc(C)ccc12 | inconclusive: 10%
O=C(Nc1ccc(Br)cc1)[C@H]1[C@H](C(=O)O)[C@H]2C=C[C@@H]1C2 | inactive
CC(C)CN1CCC(CNC(=O)c2cnc(-c3cccnc3)nc2)C1 (stereo unspecified) | inconclusive: 18%
CCOc1ccc2nc(N3CCC(C(=O)N(CC)CCn4cccn4)CC3)nc(C)c2c1 | inactive
COc1ccc(CN2CCOCC2)cc1 | inconclusive: 19%
O=[N+]([O-])c1ccc(N=Cc2nc(-c3ccc(Br)cc3)oc2O)cc1 | inconclusive: 10%
CCC1CCCCN1C(=O)c1cc2n(n1)C(C(F)(F)F)CC(c1ccc(Cl)cc1)N2 (stereo unspecified) | inconclusive: 28%
C=CCSc1nc2nc3c(cc2c(=O)n1-c1ccccc1C)COC(C)(C)C3 | inconclusive: 19%
CCOCCCNC(=O)Cc1cn(C)c2ccccc12 | inactive
COc1cc(C[C@@]2(O)CO[C@H](c3ccc(O[C@@H]4O[C@H](CO)[C@@H](O)[C@H](O)[C@H]4O)c(OC)c3)[C@H]2CO)ccc1O | inconclusive: 21%
Cc1nnc(NC(=O)CSc2cn(Cc3ccc(Cl)cc3)c3ccccc23)s1 | inactive
O=C(Cc1c(C(=O)O)[nH]c2ccccc12)NCCN1CCOCC1 | inactive
CCc1[nH]c2c(CNC(=O)Cc3csc(C)n3)cc(C)cc2c1C | inconclusive: 12%
COc1ccc(C(=O)N[C@H]2C[C@H]3C(=O)Nc4ccc(-c5ccsc5)cc4C(=O)N3C2)cc1 | inconclusive: 22%
COc1ccc(NC(=O)CN(c2cccc([N+](=O)[O-])c2)S(C)(=O)=O)cc1Cl | inconclusive: 14%
CCOc1ccc(CN2CCOC3(CNCCOC3)C2)cc1CO (stereo unspecified) | inactive
Cn1nc(CC2CCN(Cc3ccncc3)CC2)n(-c2ccccc2)c1=O | inconclusive: 10%
CC(C)CNC(=O)C(=O)N1CCCn2cncc2C1 | inconclusive: 13%

3 entries picked at random from those above, as already listed:
SMILES | inhibition
COc1ccc2nc(Cl)c(Cl)nc2c1 | inactive
CC1=C(c2ccccc2)C1c1nc(CC2CCN(C)CC2)no1 (stereo unspecified) | inconclusive: 11%
CC(C)CNC(=O)C(=O)N1CCCn2cncc2C1 | inconclusive: 13%

An excerpt of these results, as tab-separated lines:
SMILES	inhibition
COc1cc(C2Nc3ccccc3NC3=C2C(=O)CCC3)cc(OC)c1O (stereo unspecified)	inconclusive: 12%
Fc1cccc(Cl)c1C1CC(c2ccccc2)Nc2ncnn21 (stereo unspecified)	inactive
